Literature values as cited in US20050222039A1, “Animal treatment” (priority 2001, published 2005).
At least one structure is not confirmed: it was looked up by name or label, or the drawing left a doubt.

How the values were obtained:
rabbits = conditions: established lactation, single bromocriptine injection; cited from earlier work
cows = conditions: bromocriptine to block the prolactin surge at calving; cited from earlier work
rams = conditions: cited from earlier work
ewes = conditions: first 4 weeks of lactation; cited from earlier work

SMILES: CC(C)C[C@H]1C(=O)N2CCC[C@H]2[C@]2(O)O[C@](NC(=O)[C@@H]3C=C4c5cccc6[nH]c(Br)c(c56)C[C@H]4N(C)C3)(C(C)C)C(=O)N12 [bromocriptine]
- duration of reduced milk yields (rabbits): up to 36 h
- onset of milk production following calving (cows): delays
- accessory sex glands (rams): regression
- steroidogenic and spermatogenic activity in the testes (rams; summer): decreases
- milk yields vs control ewes (ewes): lower
